Experimental data: publication doi:10.1101/2020.02.12.946293
Results are given in words; binding and its absence hold for the method and conditions named. Some results given as binding are weak or reduced against the parent protein; the word gives no strength.

Legend:
[1] = target: T1, yMsh5 (S. cerevisiae) (UniProt Q12175); experiment: co-purification by tandem affinity
T1 sequence: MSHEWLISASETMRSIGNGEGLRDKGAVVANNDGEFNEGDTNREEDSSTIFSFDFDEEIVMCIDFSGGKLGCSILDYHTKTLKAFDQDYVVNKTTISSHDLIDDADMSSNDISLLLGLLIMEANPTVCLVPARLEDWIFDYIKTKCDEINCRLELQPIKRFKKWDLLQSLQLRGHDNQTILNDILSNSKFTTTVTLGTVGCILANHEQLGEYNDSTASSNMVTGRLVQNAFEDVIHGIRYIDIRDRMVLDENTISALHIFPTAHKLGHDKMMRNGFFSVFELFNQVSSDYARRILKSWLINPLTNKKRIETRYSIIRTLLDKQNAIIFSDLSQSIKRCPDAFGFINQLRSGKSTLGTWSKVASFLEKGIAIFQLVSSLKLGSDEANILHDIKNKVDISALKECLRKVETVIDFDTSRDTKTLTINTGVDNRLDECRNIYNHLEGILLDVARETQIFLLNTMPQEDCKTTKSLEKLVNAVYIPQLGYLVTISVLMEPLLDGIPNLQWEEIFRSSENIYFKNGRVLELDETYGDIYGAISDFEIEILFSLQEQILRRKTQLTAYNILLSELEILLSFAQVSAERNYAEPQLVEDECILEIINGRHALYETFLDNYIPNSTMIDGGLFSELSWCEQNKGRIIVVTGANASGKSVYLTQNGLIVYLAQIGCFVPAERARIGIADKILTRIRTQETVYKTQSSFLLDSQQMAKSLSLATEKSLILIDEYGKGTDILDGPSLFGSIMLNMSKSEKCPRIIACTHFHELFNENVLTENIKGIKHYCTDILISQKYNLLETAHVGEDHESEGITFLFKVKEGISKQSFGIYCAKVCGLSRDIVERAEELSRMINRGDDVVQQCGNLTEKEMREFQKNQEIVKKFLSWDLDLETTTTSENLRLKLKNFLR

[2] = target: yMsh4-yMsh5 (S. cerevisiae) (UniProt P40965+Q12175); experiment: pull-down

Row | Binder | binding [1] | binding [2]
1 | yMsh4 (protein, UniProt P40965 1-878) MSESNLSSFISTNYFNLRSAANSSNSISKPSTKKSIRNQKSPTNISSWALKKKTLQIAETTWENNEKDSTHSHYLMTGSMASRTATSLSRYSTNASLLGPSIDCVLCCIYEVPRDISTRIGLCIINCNTGQMYLSDFMDSQIYIRVVHKLQIYQPTEILIPSSSLAPTVSKLATMIKFNVAETVKIEEGSRKCFNSQDGLAAITKYLMDDTKKDLKIEEIIDKTFALCAASAAISYMEEIISKSSRNLNAFRKLRIQFEGTENTMLIDSKTVRGLELVENKLDKNGISLWKFLDTTSTKMGQRSLRNSILQPLTDRGSIEMRLEALEELKANDDLLQKLRLEMKSLPDLDKLFSRLLCINHSAIKPDQRINYVLLLKETLQSVKSLKDALNDQLIQSRLISETKKIFNNDAIMEIEKLINSCINEDCVWASSAIQLLNQRSYAVKSDSNGLLDVSRQIYKEVKEEFFREVEDLTAKNKINLDHNYDSARGFYLRIKRQEFTDDVATLPDVFISRTIKKNYIECTTLNIIKKNARLKEVMEEILLLSEETVDELLDKIATHISELFMIAEAVAILDLVCSFTYNLKENNYTIPIFTNNLLIRDSRHPLLEKVLKNFVPNTISSTKHSSSLQIITGCNMSGKSVYLKQVALICIMAQMGSGIPALYGSFPVFKRLHARVCNDSMELTSSNFGFEMKEMAYFLDDINTETLLILDELGRGSSIADGFCVSLAVTEHLLRTEATVFLSTHFQDIPKIMSKKPAVSHLHMDAVLLNDNSVKMNYQLTQKSVAIENSGIRVVKKIFNPDIIAEAYNIHSLLKIAKARTENEDSNGVVDQKTINQMKRIHNLVAILKECAGNEKEPLTLGKLKEINSDFIENFEE | binds | 
2 | yMlh1-yMlh3 (complex, UniProt P38920;Q12083) chain 1: MSLRIKALDASVVNKIAAGEIIISPVNALKEMMENSIDANATMIDILVKEGGIKVLQITDNGSGINKADLPILCERFTTSKLQKFEDLSQIQTYGFRGEALASISHVARVTVTTKVKEDRCAWRVSYAEGKMLESPKPVAGKDGTTILVEDLFFNIPSRLRALRSHNDEYSKILDVVGRYAIHSKDIGFSCKKFGDSNYSLSVKPSYTVQDRIRTVFNKSVASNLITFHISKVEDLNLESVDGKVCNLNFISKKSISPIFFINNRLVTCDLLRRALNSVYSNYLPKGNRPFIYLGIVIDPAAVDVNVHPTKREVRFLSQDEIIEKIANQLHAELSAIDTSRTFKASSISTNKPESLIPFNDTIESDRNRKSLRQAQVVENSYTTANSQLRKAKRQENKLVRIDASQAKITSFLSSSQQFNFEGSSTKRQLSEPKVTNVSHSQEAEKLTLNESEQPRDANTINDNDLKDQPKKKQKLGDYKVPSIADDEKNALPISKDGYIRVPKERVNVNLTSIKKLREKVDDSIHRELTDIFANLNYVGVVDEERRLAAIQHDLKLFLIDYGSVCYELFYQIGLTDFANFGKINLQSTNVSDDIVLYNLLSEFDELNDDASKEKIISKIWDMSSMLNEYYSIELVNDGLDNDLKSVKLKSLPLLLKGYIPSLVKLPFFIYRLGKEVDWEDEQECLDGILREIALLYIPDMVPKVDTSDASLSEDEKAQFINRKEHISSLLEHVLFPCIKRRFLAPRHILKDVVEIANLPDLYKVFERC chain 2: MSQHIRKLDSDVSERLKSQACTVSLASAVREIVQNSVDAHATTIDVMIDLPNLSFAVYDDGIGLTRSDLNILATQNYTSKIRKMNDLVTMKTYGYRGDALYSISNVSNLFVCSKKKDYNSAWMRKFPSKSVMLSENTILPIDPFWKICPWSRTKSGTVVIVEDMLYNLPVRRRILKEEPPFKTFNTIKADMLQILVMHPMISLNVQYTDKLRINTEVLFRSKNITEGLTKHQQMSQVLRNVFGAIIPPDMLKKVSLKFNEYQIEGIISKMPVGLKDLQFIYINGRRYADSAFQGYVDSLFQAQDFGEKGMSLLKTKSVGKPYRSHPVFILDVRCPQTIDDLLQDPAKKIVKPSHIRTIEPLIVKTIRSFLTFQGYLTPDKSDSSFEIVNCSQKTATLPDSRIQISKRNQVLNSKMKIARINSYIGKPAVNGCRINNSTINYEKIKNIRIDGQKSRLRNKLSSRPYDSGFTEDYDSIGKTITDFSISRSVLAKYEVINQVDKKFILIRCLDQSIHNCPLLVLVDQHACDERIRLEELFYSLLTEVVTGTFVARDLKDCCIEVDRTEADLFKHYQSEFKKWGIGYETIEGTMETSLLEIKTLPEMLTSKYNGDKDYLKMVLLQHAHDLKDFKKLPMDLSHFENYTSVDKLYWWKYSSCVPTVFHEILNSKACRSAVMFGDELTRQECIILISKLSRCHNPFECAHGRPSMVPIAELK |  | binds
